Data as given in PubChem BioAssay AID743454 (Peter MacCallum Cancer Centre, 2014)

Test: 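Genes whose loss kills vorinostat-resistant colon cancer cells under vorinostat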 (primary screen)
Cell system: human HCT116-VR colon cancer cells, selected for vorinostat resistance
Reagents: siRNA pool against human genes, 40 nM siRNA pool
Duration: vorinostat for 24 h, read-out about 72 h after transfection
Conditions: vorinostat at 2.5 µM final
Measurement: 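Two measures, CellTiter-Fluor viability and luminescent caspase 3/7 activity, each as fold change against same-plate mock wells, mean of duplicates, then screen-wide robust z-score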
Scale: viability robust z-score: higher = more viable cells than screen typical; caspase robust z-score: higher = more caspase 3/7 activity than screen typical
Rule for the call: 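a knock-down is a hit when classed RV1 or RV2 for lowered viability, or CA1 or CA2 for caspase activation; those lethal without drug were dropped; hits were retested singly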
The deposit covers about 18,000 reagents; shown is an unselected part. 450 of them (2.5%) count as active. 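Single biological run; no consistent viability z cut-off exists, so the class columns, not z-scores, define the calls.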 Unmarked entries are inactive.

gene | viability hit class | caspase hit class | viability robust z-score | caspase robust z-score
BRD7 | no change | no change | -0.83 | -0.46
C20orf204 | no change | no change | -2.41 | 2.53
SPHK1 | no change | no change | 0.79 | 0.24
FAM78A | no change | no change | 0.48 | -0.3
OBSL1 | no change | no change | -1.12 | 3.29
PAGE1 | no change | no change | 1.78 | 0.3
FBXL17 | no change | no change | -1.83 | -1.04
HSF5 | no change | no change | 0.48 | 0.03
FLRT1 | no change | no change | -0.61 | 4.7
KCNH5 | no change | no change | 0.26 | -0.76
ADO | no change | no change | -0.25 | 0.67
CD163L1 | no change | no change | 0.45 | -0.38
TMEM134 | no change | no change | -0.59 | 1.23
PRPF3 | no change | no change | -2.36 | 0.82
NEK11 | no change | no change | -0.7 | -0.02
PPP1R17 | no change | no change | -0.4 | -1.52
ASMTL | no change | no change | -3.42 | 2.73
MIGA2 | no change | no change | -0.24 | -0.76
OPN1MW2 | no change | no change | 0.72 | 1.12
DIAPH3 | no change | no change | 0.48 | 0.31
CD6 | no change | no change | 0.23 | 1.75
RAD54B | no change | no change | -0.18 | -0.5
MBD3 | no change | no change | -0.01 | 0.25
KRTAP19-1 | no change | no change | -0.06 | -0.82
STPG2 | no change | no change | 0.67 | -0.8
TSLIG1 | no change | no change | -0.77 | -0.98
SRRM2 | no change | no change | 0.3 | 1.64
CRYGB | no change | no change | 0.66 | 1.09
OR6C75 | no change | no change | 0.04 | 1.36
IPO5 | no change | no change | 1.3 | -0.48
RRP36 | no change | no change | -0.88 | -1.27
SERPINF1 | no change | no change | 0.66 | 0.9
RTBDN | no change | no change | -0.63 | 1.96
LRRC18 | no change | no change | 1.04 | 3.06
WDFY2 | no change | no change | -0.55 | 2.66
RBM22 | no change | no change | -0.9 | 3
DNAI3 | no change | no change | 0.58 | -0.38
MED13L | no change | no change | 0.55 | -0.28
DOCK8 | no change | no change | 1.07 | 1.73
OR1N2 | no change | no change | -0.32 | -0.15
MFAP5 | no change | no change | -0.9 | 1.56
GFRA1 | no change | no change | 0.3 | -0.9
IRF2BP1 | no change | no change | -0.98 | 2.23
ZC3H15 | no change | no change | 0.48 | 0.54
GART | no change | no change | -1.89 | 1.36
SPA17 | no change | no change | 0.18 | 2.22
PBX2 | no change | no change | 0.72 | 0.03
TMEM165 | no change | no change | 0.2 | -0.53
CERKL | no change | no change | 0.54 | -0.2
CRIPAK (retired record) | no change | no change | -0.58 | 1.52
PKDCC | no change | no change | -0.45 | 3.21
LGALS8 | no change | no change | -0.17 | 0.22
MAFB | no change | no change | 0.04 | -0.51
PNPO | no change | no change | 1.05 | 0.32
FKBP6 | no change | no change | -0.72 | -0.76
HIGD1B | no change | no change | -0.4 | -0.92
TMEM67 | no change | no change | 1.38 | -0.34

A stretch of the results above:
gene | viability hit class | caspase hit class | viability robust z-score | caspase robust z-score
DNAI3 | no change | no change | 0.58 | -0.38
MED13L | no change | no change | 0.55 | -0.28
DOCK8 | no change | no change | 1.07 | 1.73
OR1N2 | no change | no change | -0.32 | -0.15
MFAP5 | no change | no change | -0.9 | 1.56
GFRA1 | no change | no change | 0.3 | -0.9
IRF2BP1 | no change | no change | -0.98 | 2.23
ZC3H15 | no change | no change | 0.48 | 0.54
GART | no change | no change | -1.89 | 1.36
